Compound in this assay: Nc1ncnc2c1ncn2[C@@H]1O[C@H](COP(=O)(O)OP(=O)(O)NP(=O)(O)O)[C@@H](O)[C@H]1O [adenylyl imidodiphosphate]
The experiment in a line: NP40-soluble protein abundance relative to vehicle (solubility fold change) (ratio); higher = more soluble protein in presence of AMP-PNP. The procedure, abridged: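 Crude Jurkat lysate, prepared by Dounce homogenisation, was exposed to eight concentrations from 0.1 to 10 mM for 10 min at room temperature and then 3 min at 37 °C. Solubilisation used 0.8% NP40 with benzonase for 60 min at 4 °C, followed by ultracentrifugation and TMT labelling of the supernatant for LC-MS/MS. After vsn normalisation of intensities, each value is the fold change against the detergent-processed vehicle within each replicate, across three independent experiments.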

Protein sequences, listed by entry. Tags and fused reporters are not part of them. Lines headed by an entry give the natural chain unless they say otherwise; changes in a name come on top.
UniProt Q9Y5J7: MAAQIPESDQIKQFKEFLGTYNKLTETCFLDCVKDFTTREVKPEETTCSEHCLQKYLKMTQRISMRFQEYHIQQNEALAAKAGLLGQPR
UniProt Q9Y5Z7: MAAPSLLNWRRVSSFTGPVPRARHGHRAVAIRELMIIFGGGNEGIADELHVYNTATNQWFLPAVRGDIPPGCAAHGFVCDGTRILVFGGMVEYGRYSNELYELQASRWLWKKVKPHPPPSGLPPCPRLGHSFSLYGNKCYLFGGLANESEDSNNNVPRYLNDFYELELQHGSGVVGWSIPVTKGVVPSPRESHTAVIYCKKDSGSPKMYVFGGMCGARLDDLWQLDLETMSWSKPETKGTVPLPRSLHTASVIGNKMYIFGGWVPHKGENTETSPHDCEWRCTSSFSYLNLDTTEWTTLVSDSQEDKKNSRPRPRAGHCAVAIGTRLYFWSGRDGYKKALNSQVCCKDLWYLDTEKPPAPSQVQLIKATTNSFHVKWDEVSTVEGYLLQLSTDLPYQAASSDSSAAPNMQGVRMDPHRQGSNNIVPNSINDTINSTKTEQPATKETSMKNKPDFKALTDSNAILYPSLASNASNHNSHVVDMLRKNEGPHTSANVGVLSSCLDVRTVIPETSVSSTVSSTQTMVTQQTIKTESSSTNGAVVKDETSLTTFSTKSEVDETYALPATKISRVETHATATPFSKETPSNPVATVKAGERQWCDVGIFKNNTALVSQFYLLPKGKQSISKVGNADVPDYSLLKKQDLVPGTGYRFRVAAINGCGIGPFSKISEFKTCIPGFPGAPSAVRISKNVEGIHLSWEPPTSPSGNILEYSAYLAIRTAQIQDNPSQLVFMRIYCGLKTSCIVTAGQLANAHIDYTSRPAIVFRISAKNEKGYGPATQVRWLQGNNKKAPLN
UniProt Q9Y617: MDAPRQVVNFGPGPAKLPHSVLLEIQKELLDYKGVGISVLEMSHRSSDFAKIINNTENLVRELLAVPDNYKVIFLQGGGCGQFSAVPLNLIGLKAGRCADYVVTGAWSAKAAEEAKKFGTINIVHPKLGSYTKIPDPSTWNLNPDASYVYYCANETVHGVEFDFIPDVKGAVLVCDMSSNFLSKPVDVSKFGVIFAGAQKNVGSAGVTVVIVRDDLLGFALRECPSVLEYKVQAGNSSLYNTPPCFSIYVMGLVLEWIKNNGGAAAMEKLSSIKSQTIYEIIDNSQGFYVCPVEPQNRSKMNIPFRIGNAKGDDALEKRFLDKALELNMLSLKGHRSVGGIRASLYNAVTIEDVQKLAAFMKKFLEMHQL
UniProt Q9Y512: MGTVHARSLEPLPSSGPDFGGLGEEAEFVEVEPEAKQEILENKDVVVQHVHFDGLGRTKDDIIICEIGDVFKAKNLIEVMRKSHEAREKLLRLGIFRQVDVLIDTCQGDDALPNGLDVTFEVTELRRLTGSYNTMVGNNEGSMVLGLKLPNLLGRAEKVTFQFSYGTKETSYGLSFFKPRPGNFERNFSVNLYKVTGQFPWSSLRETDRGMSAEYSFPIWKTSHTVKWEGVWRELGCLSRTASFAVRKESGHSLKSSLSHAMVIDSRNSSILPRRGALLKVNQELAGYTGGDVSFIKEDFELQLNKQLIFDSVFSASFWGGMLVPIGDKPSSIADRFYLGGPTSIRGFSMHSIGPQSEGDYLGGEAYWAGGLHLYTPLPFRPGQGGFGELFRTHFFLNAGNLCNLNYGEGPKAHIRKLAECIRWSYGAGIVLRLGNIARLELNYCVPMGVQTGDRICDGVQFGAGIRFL
UniProt P48556: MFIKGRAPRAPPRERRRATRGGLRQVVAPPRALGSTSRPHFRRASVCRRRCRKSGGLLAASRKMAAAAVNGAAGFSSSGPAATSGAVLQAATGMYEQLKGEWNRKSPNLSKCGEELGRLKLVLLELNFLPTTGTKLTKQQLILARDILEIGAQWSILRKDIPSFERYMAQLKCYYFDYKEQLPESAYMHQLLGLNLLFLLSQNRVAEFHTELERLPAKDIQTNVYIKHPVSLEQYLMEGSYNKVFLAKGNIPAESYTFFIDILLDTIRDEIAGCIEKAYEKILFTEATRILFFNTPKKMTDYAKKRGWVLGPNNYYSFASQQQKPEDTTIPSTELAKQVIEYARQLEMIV
UniProt Q9Y6J0: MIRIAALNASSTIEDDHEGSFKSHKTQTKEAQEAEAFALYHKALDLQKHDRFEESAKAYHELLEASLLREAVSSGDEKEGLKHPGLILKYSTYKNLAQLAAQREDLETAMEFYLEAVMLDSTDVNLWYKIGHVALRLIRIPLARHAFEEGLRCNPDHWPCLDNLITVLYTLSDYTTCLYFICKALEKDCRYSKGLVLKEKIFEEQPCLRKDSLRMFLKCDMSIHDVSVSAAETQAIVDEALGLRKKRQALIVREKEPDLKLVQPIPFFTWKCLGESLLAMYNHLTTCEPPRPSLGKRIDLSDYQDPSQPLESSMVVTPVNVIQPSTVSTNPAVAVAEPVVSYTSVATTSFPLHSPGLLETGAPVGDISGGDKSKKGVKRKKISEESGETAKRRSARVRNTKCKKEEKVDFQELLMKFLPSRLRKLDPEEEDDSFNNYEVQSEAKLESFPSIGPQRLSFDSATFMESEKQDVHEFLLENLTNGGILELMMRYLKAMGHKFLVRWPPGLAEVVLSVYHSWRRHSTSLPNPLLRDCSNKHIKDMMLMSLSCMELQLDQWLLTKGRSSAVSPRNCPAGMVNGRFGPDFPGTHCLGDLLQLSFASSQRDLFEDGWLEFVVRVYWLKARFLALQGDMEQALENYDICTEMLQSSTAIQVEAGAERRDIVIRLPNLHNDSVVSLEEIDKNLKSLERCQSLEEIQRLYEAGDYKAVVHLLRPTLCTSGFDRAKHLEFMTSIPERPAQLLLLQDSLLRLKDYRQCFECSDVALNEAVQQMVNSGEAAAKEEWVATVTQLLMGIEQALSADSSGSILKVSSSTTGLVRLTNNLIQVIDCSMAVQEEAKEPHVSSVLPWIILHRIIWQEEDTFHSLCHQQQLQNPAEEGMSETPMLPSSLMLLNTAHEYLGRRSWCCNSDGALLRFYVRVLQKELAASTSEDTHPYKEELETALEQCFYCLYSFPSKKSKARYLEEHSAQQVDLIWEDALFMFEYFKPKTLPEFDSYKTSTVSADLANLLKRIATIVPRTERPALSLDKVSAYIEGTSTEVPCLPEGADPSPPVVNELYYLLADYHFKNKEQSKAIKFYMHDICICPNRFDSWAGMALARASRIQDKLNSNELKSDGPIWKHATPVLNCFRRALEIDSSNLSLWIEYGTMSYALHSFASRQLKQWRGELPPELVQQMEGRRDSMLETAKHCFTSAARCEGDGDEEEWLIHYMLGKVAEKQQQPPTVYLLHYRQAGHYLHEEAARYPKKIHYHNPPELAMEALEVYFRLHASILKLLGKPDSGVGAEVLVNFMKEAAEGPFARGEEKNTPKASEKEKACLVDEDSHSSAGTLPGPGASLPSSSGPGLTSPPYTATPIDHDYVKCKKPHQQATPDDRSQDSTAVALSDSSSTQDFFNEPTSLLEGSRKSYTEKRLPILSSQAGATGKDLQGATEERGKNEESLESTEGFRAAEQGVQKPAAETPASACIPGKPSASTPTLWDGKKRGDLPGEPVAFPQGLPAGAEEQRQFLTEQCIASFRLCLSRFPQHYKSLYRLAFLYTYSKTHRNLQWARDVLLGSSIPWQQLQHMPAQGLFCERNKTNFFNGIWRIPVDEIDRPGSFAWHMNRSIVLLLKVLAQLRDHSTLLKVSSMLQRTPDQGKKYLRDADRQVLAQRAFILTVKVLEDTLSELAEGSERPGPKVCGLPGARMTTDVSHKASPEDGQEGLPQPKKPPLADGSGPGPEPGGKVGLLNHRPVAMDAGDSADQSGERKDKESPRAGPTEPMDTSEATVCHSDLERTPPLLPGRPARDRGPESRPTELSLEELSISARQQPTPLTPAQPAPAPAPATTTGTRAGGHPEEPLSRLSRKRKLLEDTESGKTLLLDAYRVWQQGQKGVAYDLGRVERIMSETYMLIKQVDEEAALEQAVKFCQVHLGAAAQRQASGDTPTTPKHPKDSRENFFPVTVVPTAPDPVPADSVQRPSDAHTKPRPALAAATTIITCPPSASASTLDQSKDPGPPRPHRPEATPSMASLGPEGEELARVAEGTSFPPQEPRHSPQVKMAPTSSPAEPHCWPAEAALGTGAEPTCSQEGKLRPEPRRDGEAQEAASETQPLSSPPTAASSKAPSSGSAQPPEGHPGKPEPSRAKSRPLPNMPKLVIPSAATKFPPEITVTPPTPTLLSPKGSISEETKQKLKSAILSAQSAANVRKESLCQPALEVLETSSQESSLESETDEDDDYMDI
UniProt Q9Y6W3: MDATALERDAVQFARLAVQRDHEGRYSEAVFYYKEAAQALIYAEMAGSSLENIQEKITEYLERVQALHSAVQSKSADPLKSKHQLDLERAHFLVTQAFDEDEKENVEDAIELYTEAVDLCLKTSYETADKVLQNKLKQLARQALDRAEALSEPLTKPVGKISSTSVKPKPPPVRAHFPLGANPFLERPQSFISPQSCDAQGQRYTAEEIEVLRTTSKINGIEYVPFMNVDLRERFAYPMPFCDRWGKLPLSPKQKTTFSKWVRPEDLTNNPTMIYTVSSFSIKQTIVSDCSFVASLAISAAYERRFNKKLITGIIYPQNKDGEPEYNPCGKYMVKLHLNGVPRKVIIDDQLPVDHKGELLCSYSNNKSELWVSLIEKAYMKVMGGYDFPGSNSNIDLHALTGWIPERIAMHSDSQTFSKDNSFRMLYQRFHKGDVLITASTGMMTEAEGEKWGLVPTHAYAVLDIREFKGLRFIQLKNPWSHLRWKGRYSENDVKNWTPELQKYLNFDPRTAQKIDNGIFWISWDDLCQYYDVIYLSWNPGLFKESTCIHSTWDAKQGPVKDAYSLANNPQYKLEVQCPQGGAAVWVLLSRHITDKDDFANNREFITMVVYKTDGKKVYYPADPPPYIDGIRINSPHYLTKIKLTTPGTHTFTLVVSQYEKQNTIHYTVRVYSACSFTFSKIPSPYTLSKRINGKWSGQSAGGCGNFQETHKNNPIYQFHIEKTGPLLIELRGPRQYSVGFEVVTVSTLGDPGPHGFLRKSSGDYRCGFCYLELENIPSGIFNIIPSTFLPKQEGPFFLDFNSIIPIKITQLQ
UniProt Q9Y3P9: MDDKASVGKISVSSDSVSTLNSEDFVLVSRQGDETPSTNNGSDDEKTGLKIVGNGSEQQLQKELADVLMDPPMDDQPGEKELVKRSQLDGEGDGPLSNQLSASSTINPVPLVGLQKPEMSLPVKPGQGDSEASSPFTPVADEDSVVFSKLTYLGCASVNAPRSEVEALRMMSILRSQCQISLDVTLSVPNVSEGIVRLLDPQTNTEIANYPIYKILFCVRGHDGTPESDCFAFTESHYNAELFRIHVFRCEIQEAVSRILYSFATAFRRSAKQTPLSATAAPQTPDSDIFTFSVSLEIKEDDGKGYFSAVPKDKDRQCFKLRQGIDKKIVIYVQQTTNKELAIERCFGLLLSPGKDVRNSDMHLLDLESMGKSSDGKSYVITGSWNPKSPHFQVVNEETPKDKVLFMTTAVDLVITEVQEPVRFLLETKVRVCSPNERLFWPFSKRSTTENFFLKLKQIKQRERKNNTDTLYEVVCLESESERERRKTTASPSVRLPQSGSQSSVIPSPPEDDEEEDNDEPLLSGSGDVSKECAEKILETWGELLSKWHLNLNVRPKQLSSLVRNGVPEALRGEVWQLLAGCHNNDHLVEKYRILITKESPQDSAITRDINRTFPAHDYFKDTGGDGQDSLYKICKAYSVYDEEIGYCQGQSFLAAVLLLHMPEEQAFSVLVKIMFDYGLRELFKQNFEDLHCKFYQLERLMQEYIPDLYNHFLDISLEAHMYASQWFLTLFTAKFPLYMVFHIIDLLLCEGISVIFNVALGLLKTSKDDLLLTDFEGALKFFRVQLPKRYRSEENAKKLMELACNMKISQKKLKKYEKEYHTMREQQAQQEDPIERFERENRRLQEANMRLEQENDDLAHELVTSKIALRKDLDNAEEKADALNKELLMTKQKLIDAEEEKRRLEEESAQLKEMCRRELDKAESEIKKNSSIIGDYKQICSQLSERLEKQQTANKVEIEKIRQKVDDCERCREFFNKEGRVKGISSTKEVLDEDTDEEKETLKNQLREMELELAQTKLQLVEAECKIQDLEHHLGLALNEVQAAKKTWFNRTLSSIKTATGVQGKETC
UniProt Q9Y5L4: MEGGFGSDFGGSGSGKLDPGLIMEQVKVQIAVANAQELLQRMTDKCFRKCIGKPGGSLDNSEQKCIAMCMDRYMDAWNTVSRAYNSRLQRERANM

± gives the standard deviation of the averaged measurements. Only a part is listed here, and it is no random draw.

For 15 targets, NP40-soluble protein abundance results are on record in the supplement of paper PMC6411743.

Take UniProt Q9Y5J7 and related entries: the NP40-soluble protein abundance by setting is: (concentration: 1mM) 0.976 ± 0.018; (concentration: 2mM) 0.988 ± 0.03; (concentration: 4mM) 0.949 ± 0.037; (concentration: 6mM) 0.887 ± 0.043; (concentration: 8mM) 0.872 ± 0.02; (concentration: 10mM) 0.89 ± 0.01.
Turning to HCFC2 (UniProt Q9Y5Z7), the NP40-soluble protein abundance amounted to 1.01 ± 0.014 (concentration: 1mM); 0.983 ± 0.036 (concentration: 2mM); 1.04 ± 0.02 (concentration: 4mM); 1.02 ± 0.031 (concentration: 6mM); 1.03 ± 0.014 (concentration: 8mM); 1.03 ± 0.023 (concentration: 10mM).
As to PSAT1 (UniProt Q9Y617), the NP40-soluble protein abundance (concentration: 1mM) amounted to 0.976 ± 0.02; the NP40-soluble protein abundance (concentration: 2mM) is 0.898 ± 0.032; the NP40-soluble protein abundance (concentration: 4mM) came to 0.964 ± 0.034; the NP40-soluble protein abundance (concentration: 6mM) is 1.05 ± 0.096; the NP40-soluble protein abundance (concentration: 8mM) was 1.05 ± 0.074; the NP40-soluble protein abundance (concentration: 10mM) was 1.02 ± 0.069.
TLN2 (UniProt Q9Y4G6): the NP40-soluble protein abundance runs as follows: (concentration: 1mM) 1.02 ± 0.047; (concentration: 2mM) 1.06 ± 0.078; (concentration: 4mM) 1.03 ± 0.025; (concentration: 6mM) 1.02 ± 0.033; (concentration: 8mM) 0.963 ± 0.016; (concentration: 10mM) 1.03 ± 0.015.
Consider SAMM50 (UniProt Q9Y512), for which the NP40-soluble protein abundance by setting is: (concentration: 1mM) 0.9168 ± 0.0057; (concentration: 2mM) 0.823 ± 0.18; (concentration: 4mM) 0.91 ± 0.14; (concentration: 6mM) 0.886 ± 0.038; (concentration: 8mM) 0.973 ± 0.064; (concentration: 10mM) 0.884 ± 0.15.
Consider “R4GMR5 and related entries (UniProt P48556)”, for which the NP40-soluble protein abundance is, setting by setting: (concentration: 1mM) 0.872 ± 0.015; (concentration: 2mM) 0.824 ± 0.047; (concentration: 4mM) 0.841 ± 0.068; (concentration: 6mM) 0.864 ± 0.051; (concentration: 8mM) 0.894 ± 0.07; (concentration: 10mM) 0.859 ± 0.094.
Regarding TACC3 (UniProt Q9Y6A5), the NP40-soluble protein abundance (concentration: 1mM) was 1 ± 0.029; the NP40-soluble protein abundance (concentration: 2mM) amounted to 1.05 ± 0.063; the NP40-soluble protein abundance (concentration: 4mM) turned out to be 1 ± 0.037; the NP40-soluble protein abundance (concentration: 6mM) was found to be 0.984 ± 0.014; the NP40-soluble protein abundance (concentration: 8mM) came out at 0.947 ± 0.04; the NP40-soluble protein abundance (concentration: 10mM) stood at 0.976 ± 0.049.
For NOC2L (UniProt Q9Y3T9), the NP40-soluble protein abundance was 1.06 ± 0.039 (concentration: 1mM); 1.05 ± 0.062 (concentration: 2mM); 1.03 ± 0.068 (concentration: 4mM); 1.1 ± 0.059 (concentration: 6mM); 1.12 ± 0.096 (concentration: 8mM); 1.15 ± 0.094 (concentration: 10mM).
Regarding “R4GN35 and related entries (UniProt Q5VZ89)”, the NP40-soluble protein abundance (concentration: 1mM) amounted to 0.992 ± 0.016; the NP40-soluble protein abundance (concentration: 2mM) was found to be 0.965 ± 0.011; the NP40-soluble protein abundance (concentration: 4mM) turned out to be 1.018 ± 0.0068; the NP40-soluble protein abundance (concentration: 6mM) was 0.971 ± 0.037; the NP40-soluble protein abundance (concentration: 8mM) was 0.973 ± 0.041; the NP40-soluble protein abundance (concentration: 10mM) worked out at 0.958 ± 0.027.
Regarding ATP6V0A2 (UniProt Q9Y487), the NP40-soluble protein abundance was determined as 0.981 ± 0.031 (concentration: 1mM); 0.97 ± 0.021 (concentration: 2mM); 1.01 ± 0.028 (concentration: 4mM); 0.982 ± 0.021 (concentration: 6mM); 0.972 ± 0.013 (concentration: 8mM); 0.96 ± 0.016 (concentration: 10mM).
Take UniProt Q9Y6J0 and related entries: the NP40-soluble protein abundance runs as follows: (concentration: 1mM) 0.976 ± 0.031; (concentration: 2mM) 0.995 ± 0.012; (concentration: 4mM) 0.987 ± 0.025; (concentration: 6mM) 0.986 ± 0.029; (concentration: 8mM) 0.95 ± 0.023; (concentration: 10mM) 1.01 ± 0.029.
CAPN7 (UniProt Q9Y6W3): the NP40-soluble protein abundance (concentration: 1mM) amounted to 1.02 ± 0.032; the NP40-soluble protein abundance (concentration: 2mM) came out at 1 ± 0.053; the NP40-soluble protein abundance (concentration: 4mM) is 1.03 ± 0.022; the NP40-soluble protein abundance (concentration: 6mM) amounted to 0.976 ± 0.011; the NP40-soluble protein abundance (concentration: 8mM) turned out to be 0.981 ± 0.022; the NP40-soluble protein abundance (concentration: 10mM) was determined as 0.99 ± 0.043.
Turning to MAD1L1 (UniProt Q9Y6D9), the NP40-soluble protein abundance (concentration: 1mM) stood at 1.02 ± 0.028; the NP40-soluble protein abundance (concentration: 2mM) was found to be 1.03 ± 0.039; the NP40-soluble protein abundance (concentration: 4mM) was found to be 1.02 ± 0.047; the NP40-soluble protein abundance (concentration: 6mM) stood at 0.986 ± 0.021; the NP40-soluble protein abundance (concentration: 8mM) came out at 0.983 ± 0.046; the NP40-soluble protein abundance (concentration: 10mM) was determined as 1 ± 0.057.
Regarding RABGAP1 (UniProt Q9Y3P9), the NP40-soluble protein abundance reads like this: (concentration: 1mM) 0.985 ± 0.024; (concentration: 2mM) 1.01 ± 0.058; (concentration: 4mM) 0.9829 ± 0.0097; (concentration: 6mM) 0.926 ± 0.028; (concentration: 8mM) 0.897 ± 0.017; (concentration: 10mM) 0.926 ± 0.013.
With TIMM13 (UniProt Q9Y5L4), the NP40-soluble protein abundance came to 0.986 ± 0.019 (concentration: 1mM); 0.999 ± 0.046 (concentration: 2mM); 0.965 ± 0.022 (concentration: 4mM); 0.963 ± 0.021 (concentration: 6mM); 0.983 ± 0.028 (concentration: 8mM); 0.975 ± 0.022 (concentration: 10mM).
